# Reference: patent US20110207139
# Tests used:
# Assay in all cases: enzyme reaction in vitro
# [1] = tested on: REase from isolate Sa27-m20, partially purified (bacterial isolate Sa27-m20); details: purified native protein
# [2] = tested on: T1, SgeI (methylation-specific REase), recombinant (Streptomyces griseoflavus RFL11); details: purified recombinant protein
# T1 sequence: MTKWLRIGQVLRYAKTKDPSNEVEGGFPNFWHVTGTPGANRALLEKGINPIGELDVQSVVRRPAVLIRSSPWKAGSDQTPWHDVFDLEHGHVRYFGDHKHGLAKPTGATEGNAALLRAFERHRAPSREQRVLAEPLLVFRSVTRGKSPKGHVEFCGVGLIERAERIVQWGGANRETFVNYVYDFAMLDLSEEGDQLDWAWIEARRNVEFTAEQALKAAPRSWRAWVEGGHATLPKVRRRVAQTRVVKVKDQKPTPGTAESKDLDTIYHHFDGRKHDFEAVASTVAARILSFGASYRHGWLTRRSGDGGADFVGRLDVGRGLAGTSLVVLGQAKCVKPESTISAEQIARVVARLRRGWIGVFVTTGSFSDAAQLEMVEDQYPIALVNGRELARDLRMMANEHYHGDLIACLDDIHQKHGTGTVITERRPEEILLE
# [3] = tested on: SguI (methylation-specific REase), partially purified (Streptomyces griseus RFL12); details: purified native protein
# [4] = 10 mM MgCl2, 37 C 16 h, label: 5'-33P
sequence,measurement,setting,value
"ACTTCACGCCAGAATACGAAAGACCAGGTATATGCACAAAATGAGATGCTT (double strand) [MZ-96/MZ-97 hemimethylated, m5C in top strand]",activity on this sequence,"[1]; 5mC at second C of CCWGG, top strand, only small fraction cleaved in 16 h, 12/16 nt from m5C, label: 5'-33P or 3'-32P cordycepin",active
same,activity on this sequence,"[2]; 5mC at second C of CCWGG, top strand, cuts 12/16 nt from m5C with alternative 1-nt shifted cut in 5'-D and 3'-D, 5'-D incomplete, label: 5'-33P or 3'-32P cordycepin",active
same,activity on this sequence,"[3]; 5mC at second C of CCWGG, top strand, only small fraction cleaved in 16 h, 12/16 nt from m5C, 10 mM MgCl2, label: 5'-33P or 3'-32P cordycepin",active
ACTTCACGCCAGAATACGAAAGACCAGGTATATGCACAAAATGAGATGCTT (double strand) [MZ-95/MZ-97 unmethylated oligoduplex (5'-0)],activity on this sequence,[1]; [4],not active
same,activity on this sequence,"[2]; 5 mM MgCl2, 100 mM KCl, pH 8.0, 37 C 60 min, label: 5'-33P",not active
same,activity on this sequence,[3]; [4],not active
"ACTTCACGCCAGAATACGAAAGACCAGGTATATGCACAAAATGAGATGCTT (double strand) [MZ-95/MZ-98 hemimethylated, m5C in bottom strand]",activity on this sequence,"[1]; 5mC at second C of CCWGG, bottom strand, only small fraction cleaved in 16 h, 12/16 nt from m5C, label: 5'-33P or 3'-32P cordycepin",active
same,activity on this sequence,"[2]; 5mC at second C of CCWGG, bottom strand, nearly complete, cuts 12/16 nt from m5C, 5 mM MgCl2, 37 C 60 min, label: 5'-33P or 3'-32P cordycepin",active
same,activity on this sequence,"[3]; 5mC at second C of CCWGG, bottom strand, only small fraction cleaved in 16 h, 12/16 nt from m5C, 10 mM MgCl2, label: 5'-33P or 3'-32P cordycepin",active

# No signal at the amounts used counts as a negative. For part of these data: Where a protein sequence is shown, tags need not be part of it. For part of these data: For at least one entry, the source does not settle the construct or the ends of the probe.
